US20260062488A1
These are yes or no findings as the source states them, for the method shown. Some binding calls cover weakened binding; strength is not graded here.

The chains behind the UniProt entries cited, without tags or fusion partners. Where a name states a change or a piece, a line headed by the entry shows the natural chain unless it says otherwise.
UniProt P13612: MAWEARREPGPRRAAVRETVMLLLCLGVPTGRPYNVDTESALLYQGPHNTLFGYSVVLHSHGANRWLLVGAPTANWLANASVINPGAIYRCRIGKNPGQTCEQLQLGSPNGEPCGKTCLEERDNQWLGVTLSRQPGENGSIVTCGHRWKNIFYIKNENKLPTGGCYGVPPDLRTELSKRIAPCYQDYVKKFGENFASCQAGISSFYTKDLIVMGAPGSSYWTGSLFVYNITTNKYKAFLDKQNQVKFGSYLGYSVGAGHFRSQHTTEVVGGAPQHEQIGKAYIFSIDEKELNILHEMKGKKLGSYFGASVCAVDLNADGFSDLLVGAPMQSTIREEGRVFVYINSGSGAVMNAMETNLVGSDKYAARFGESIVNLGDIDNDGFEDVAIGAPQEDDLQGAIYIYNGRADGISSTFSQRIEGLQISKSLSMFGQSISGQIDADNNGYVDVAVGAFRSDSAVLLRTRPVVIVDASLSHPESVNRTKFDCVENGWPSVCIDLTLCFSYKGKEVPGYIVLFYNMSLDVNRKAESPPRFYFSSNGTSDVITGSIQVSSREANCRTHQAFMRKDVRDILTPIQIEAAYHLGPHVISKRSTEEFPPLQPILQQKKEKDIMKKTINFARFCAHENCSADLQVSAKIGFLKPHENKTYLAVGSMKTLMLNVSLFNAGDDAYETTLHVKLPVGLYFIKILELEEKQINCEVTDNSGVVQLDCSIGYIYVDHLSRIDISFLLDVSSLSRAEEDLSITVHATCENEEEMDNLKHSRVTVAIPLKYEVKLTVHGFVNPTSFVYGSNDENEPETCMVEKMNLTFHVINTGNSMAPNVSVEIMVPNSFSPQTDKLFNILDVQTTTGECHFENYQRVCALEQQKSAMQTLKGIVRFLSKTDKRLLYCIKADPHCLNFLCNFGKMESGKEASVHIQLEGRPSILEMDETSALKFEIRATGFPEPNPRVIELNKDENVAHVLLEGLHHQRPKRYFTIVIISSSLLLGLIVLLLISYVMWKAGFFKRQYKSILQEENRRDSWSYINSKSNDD

Experiments:
[1] = target: biotinylated human α4β7 extracellular domain protein (human) (UniProt P13612); assay: yeast-displayed clones, FACS
[2] = target: biotinylated human α4β7 extracellular domain protein (human) (UniProt P13612); assay: yeast-displayed scFv, flow cytometry with human α4β7 antigen
[3] = target: biotinylated human α4β7 extracellular domain protein (human) (UniProt P13612); assay: flow cytometry of yeast-displayed scFv with human α4β7 antigen; which of PE-A and APC-A shows the antigen is not said
[4] = target: human α4β7 integrin (human) (UniProt P13612); assay: FACS on α4β7-expressing HuT78 cells

Binder | binding [1] | binding [2] | binding [3] | binding [4]
Ab-h1.9a scFv clone (yeast displayed) (scFv, V domains shown) VH: EVQLVQSGAEVKKPGSSVKVSCKASGFNIKNTYMHWVRQAPGQGLEWIGRIDPANKHTEYAPKFLGRVTITADESTNTAYMELSSLRSEDTAVYYCYYVASWGQGTTVTVSS VL: DIQMTQSPSSLSASVGDRVTITCHASQEISDNIGWLQQKPGKSFKLLIYHGTNLEDGVPSRFSGSGSGTDYTLTISSLQPEDFATYYCVQYAQFPWTFGGGTKVEIK | binds | binds | binds | 
Ab-h1.9b scFv clone (yeast displayed) (scFv, V domains shown) VH: EVQLVQSGAEVKKPGSSVKVSCKASGFNIKNTYMHWVRQAPGQGLEWIGRIDPARGHTEYAPKFSGRVTITADESTNTAYMELSSLRSEDTAVYYCYYVDQWGQGTTVTVSS VL: DIQMTQSPSSLSASVGDRVTITCHASQDISDNIGWLQQKPGKSFKLLIYHGTNLEDGVPSRFSGSGSGTDYTLTISSLQPEDFATYYCVQYAQFPWTFGGGTKVEIK | binds | binds | binds | 
Ab-h1.9 scFv (parental, yeast displayed) (scFv, V domains shown) VH: EVQLVQSGAEVKKPGSSVKVSCKASGFNIKNTYMHWVRQAPGQGLEWIGRIDPANGHTEYAPKFQGRVTITADESTNTAYMELSSLRSEDTAVYYCYYVDSWGQGTTVTVSS VL: DIQMTQSPSSLSASVGDRVTITCHASQGISDNIGWLQQKPGKSFKLLIYHGTNLEDGVPSRFSGSGSGTDYTLTISSLQPEDFATYYCVQYAQFPWTFGGGTKVEIK |  | binds | binds | 

The next lines start with the values.

binding [1] | binding [2] | binding [3] | binding [4] | Binder
binds | binds | binds |  | Ab-h1.9e scFv clone (yeast displayed) (scFv, V domains shown) VH: EVQLVQSGAEVKKPGSSVKVSCKASGFNIKNTYMHWVRQAPGQGLEWIGRIDPAGGHTEYAPKFIGRVTITADESTNTAYMELSSLRSEDTAVYYCYYVASWGQGTTVTVSS VL: DIQMTQSPSSLSASVGDRVTITCHASQEISDNIGWLQQKPGKSFKLLIYHGTNLEDGVPSRFSGSGSGTDYTLTISSLQPEDFATYYCVQYAQFPWTFGGGTKVEIK
 |  |  | binds | Ab-h1.9c (antibody, V domains shown) VH: EVQLVQSGAEVKKPGSSVKVSCKASGFNIKNTYMHWVRQAPGQGLEWIGRIDPARGHTEYAPKFEGRVTITADESTNTAYMELSSLRSEDTAVYYCYYVASWGQGTTVTVSS VL: DIQMTQSPSSLSASVGDRVTITCHASQDISDNIGWLQQKPGKSFKLLIYHGTNLEDGVPSRFSGSGSGTDYTLTISSLQPEDFATYYCVQYAQFPWTFGGGTKVEIKR
